## Results of single-concentration screens

The values are deposited in ChEMBL (CHEMBL3988442, “University of Dundee, Small-Polar-MMV Screening Library” (2021)).

A: 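Whole-parasite assay of Trypanosoma brucei over 72 hours; the read-out is not stated. Concentration: 30 µM. The record gives no direction; compounds that gave an IC50 in retests scored well above the rest, so higher reads as stronger inhibition. Values scatter widely below zero; nearly all retest evidence comes from the higher of the two concentrations used. About 64,000 compounds were tested under these conditions; 1.5% (about 940) showed 50% or more at least once.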
B: 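Assay of Toxoplasma gondii numbers, read through their beta-galactosidase reporter with a colour substrate. Concentration: 10 µM. The record gives no direction; the compounds picked for IC50 retests had high values, so higher reads as fewer parasites. Size under these conditions: about 67,000 compounds, about 260 of them at 50% or above in at least one test.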

Each number is a percent effect as filed.
The controls that fix the scale are not given in the record; negative values are as filed.
This is an unselected part of the compounds tested.
A dash means the value is not listed here; it may have been measured.

| # | Compound | A | B |
|---|---|---|---|
| 1 | `CC(=O)N1CCC1c1cc(N2CC(O)C2)nc(C)n1` (centres undefined) | -24.07 | 9.352 |
| 2 | `CN(Cc1ccc(F)cc1)C(=O)Nc1cccnc1N1CCCC1` | 6.584 | -46.78 |
| 3 | `CCN(Cc1ccoc1)C(=O)C1CCN(C(=O)OC(C)(C)C)C1` (centres undefined) | -0.6356 | 2.347 |
| 4 | `CCCNC(c1cccnc1)c1ccc(F)cc1F` (centres undefined) | -24.44 | -22.22 |
| 5 | `COc1ccccc1C(O)CNC(=O)Nc1cccnc1OC` (centres undefined) | - | -3.749 |
| 6 | `Cc1ccc(F)cc1S(=O)(=O)NCc1cccc(C(=O)N2CCCC2)c1` | - | 11.39 |
| 7 | `COCCN1CC2(CCN(Cc3ccco3)CC2)c2ccccc21` | -43.52 | -46.55 |
| 8 | `O=C(O)C(F)(F)F.[H][C@@]12C[C@H](C(=O)N(C)C)[C@@]([H])(CN(CCc3ccccc3)C1)O2` | -8.711 | 3.193 |
| 9 | `Fc1cnc(N2CCCn3c(nnc3Cn3cccn3)C2)nc1` | - | -48.24 |
| 10 | `CC(C)[C@H]1CN(c2ccnc(N)n2)C[C@@H]1NC(=O)C1(C#N)CCOCC1` | -13.18 | -8.308 |
| 11 | `Cc1cccc(CNC(C)c2ccc(OCC(=O)NC3CC3)cc2)c1` (centres undefined) | 8.662 | -0.9789 |
| 12 | `CCc1ccc(CN2CCN(c3ccc(C#N)cc3)C(=O)C2)nc1` | -38.99 | -19.24 |
| 13 | `Cn1cc(CN2CCCC(CCCc3ccccn3)(C(N)=O)C2)cn1` (centres undefined) | -2.172 | 3.138 |
| 14 | `O=C(Nc1cnn(Cc2ccc(Cl)cc2)c1)N[C@@H]1C=C[C@H](CO)C1` | -21.96 | 2.953 |
| 15 | `O=C(O)C(F)(F)F.O=C(O)C(F)(F)F.O=C(O)C(F)(F)F.O=C1N(c2cccnc2)CCC12CCCN(Cc1cccnc1)C2` (centres undefined) | -6.985 | 7.944 |
| 16 | `Cc1cnc(N2CCC3(CC2)CC(NC(=O)C(C)C)CO3)nc1` (centres undefined) | -8.218 | 1.764 |
| 17 | `CCc1cccc2cc(CN)c(=O)[nH]c12` | 4.382 | 5.878 |
| 18 | `CCNC(=O)[C@@H]1CCCN1C1(C(=O)NC)CCCCC1.Cl` | -17.1 | -7.696 |
| 19 | `CNc1cc(C)nc(C2CN(Cc3ccc(C)nc3)CCO2)c1` (centres undefined) | 24.03 | 5.573 |
| 20 | `O=C(CCCc1nc2ccccc2[nH]1)N1CCCC1c1ccccn1` (centres undefined) | -35.34 | -28.06 |
| 21 | `O=C(CCOc1ccccc1)NS(=O)(=O)Cc1ccccc1` | -40.38 | 7.945 |
| 22 | `COC(=O)Nc1ccc(CNc2cncc(-n3cccn3)n2)cc1` | - | 15.67 |
| 23 | `CC1CCN(C(=O)c2cn(-c3cc(N4CCOCC4)ncn3)cn2)CC1` | 15.27 | 5.023 |
| 24 | `CC(C)c1nccn1CCC(=O)N1CCCC1c1cccn1C` (centres undefined) | 7.484 | 1.218 |
| 25 | `Oc1cc(CNCCCN2CCCC2)nc2ccc(F)cc12` | -52.8 | -0.9174 |
| 26 | `O=C(C1CC1)N1CC[C@H](c2nnc(-c3ccccc3F)o2)C1` | -11.7 | -1.931 |
| 27 | `CCc1nc(N2CCN(Cc3ncccc3C)CC2)c2cnn(C)c2n1` | -23.75 | -1.387 |
| 28 | `CN1CCN(C2CCN(Cc3cn4ccccc4n3)CC2)C1=O` | -63.74 | 24.98 |
| 29 | `CC(O)CN1CCC(CNCc2ccc(C#N)cc2)CC1` (centres undefined) | -11.97 | 0 |
| 30 | `O=C(O)C(F)(F)F.[H][C@@]12CCN(Cc3ccccn3)[C@]1([H])CC[C@H](C(=O)Nc1cnccn1)O2` | -92.65 | -20.73 |
| 31 | `Cc1cccn2c(=O)cc(CSCC(=O)Nc3nnc(C(C)C)s3)nc12` | 16.51 | -15.82 |
| 32 | `Cc1ccc(CC2COCCN(S(=O)(=O)c3ccccc3)C2)nc1` (centres undefined) | -3.534 | 8.804 |
| 33 | `O=C1NCC[C@]12CN(Cc1ccoc1)C[C@H]2c1ccccc1` | -36.7 | -1.33 |
| 34 | `[H][C@]12CCN[C@@]1([H])CN(C(=O)Cc1ccc(F)cc1)C2` | 2.887 | -4.919 |
| 35 | `CN(C)S(=O)(=O)c1ccc(CN2CCC(C(N)=O)CC2)o1` | -22.22 | 4.615 |
| 36 | `O=C(NC1CCCC1)C1Cc2nc(-c3ccsc3)sc2N1CC1CC1` (centres undefined) | 33.5 | 0.2333 |
| 37 | `CSC(C)C(=O)N1CCCN(c2ncccc2C#N)CC1` (centres undefined) | -6.748 | -1.754 |
| 38 | `COc1ncc(NC(=O)c2ccco2)c(OC)n1` | -41.04 | 7.593 |
| 39 | `Cc1noc(CNc2ccccc2CC(=O)N(C)C)n1` | -47.19 | -14.14 |
| 40 | `CCc1nnc(N[C@H](C)c2cccc(OC)c2)o1` | -75.35 | 10.54 |
| 41 | `CCc1csc(CNC(=O)C(CC)n2cccn2)n1` (centres undefined) | -14.65 | -6.047 |
| 42 | `CCC(CO)N(Cc1ccco1)C(=O)c1ccccc1NC` (centres undefined) | 11.5 | 0.4035 |
| 43 | `[H][C@]12CCN(c3cc(OC)ncn3)[C@@]1([H])C[C@@H](C(=O)NCCOC)O2` | -9.09 | 6.831 |
| 44 | `CCc1nnc2n1CCN(C(=O)c1cnc(-c3cccs3)s1)C2` | 21.73 | -0.5481 |
| 45 | `CN(C)c1nc2n(c(=O)n1)CCN2C(=O)Nc1ccc(Cl)c(Cl)c1` | -18.55 | 0.7392 |
| 46 | `CCCNC(=O)c1nc2c(o1)CN(C(=O)CN(C)C)C2` | -47.65 | 4.28 |
| 47 | `CCc1nnc(CN2CCN(CC(O)c3ccccc3)CC2)o1` (centres undefined) | -9.956 | -5.663 |
| 48 | `O=c1c2ccccc2nc2n1C(CSc1ccc(Br)cc1)CN2` (centres undefined) | - | 8.785 |
| 49 | `O=C(NC1CCN(C2CC2)CC1)N1CCN(c2cnccn2)CC1` | 0.7913 | 9.477 |
| 50 | `CC(C)c1nnc2ccc(N3CCC(C(N)=O)CC3)nn12` | -43.91 | -1.076 |
| 51 | `CCOc1ncccc1C(=O)N1CCCC(c2nccn2CCOC)C1` (centres undefined) | 30.14 | -5.576 |
| 52 | `Cc1noc(C)c1CN1CCC2(CCN(Cc3cccc(F)c3)CC2)C1.O=C(O)C(F)(F)F.O=C(O)C(F)(F)F` | -58.32 | -24.24 |
| 53 | `Cn1nc2c(cc1=O)CN(c1nc3ccccc3s1)CC2` | 1.428 | -0.5196 |
| 54 | `Cc1nc(CNC(=O)CCCc2cccs2)no1` | -3.401 | -11.03 |

The first 3 entries again:

For CC(=O)N1CCC1c1cc(N2CC(O)C2)nc(C)n1 (centres undefined) the result was A: -24.07%; B: 9.352%.
For CN(Cc1ccc(F)cc1)C(=O)Nc1cccnc1N1CCCC1 the result was A: 6.584%; B: -46.78%.
For CCN(Cc1ccoc1)C(=O)C1CCN(C(=O)OC(C)(C)C)C1 (centres undefined) the result was A: -0.6356%; B: 2.347%.